The values that follow come from PubChem BioAssay AID493014 (National Center for Advancing Translational Sciences (NCATS), 2011).

The assay can be described thus: qHTS Assay to Find Inhibitors of Chronic Active B-Cell Receptor Signaling. Particulars: ABC-DLBCL IkBa-CBG/CBR reporter, luminescence ratio (green luciferase fused to IkBa over red control in TMD8 lymphoma cells), 4 h. An excerpt: NIH Molecular Libraries Probe Production Network [MLPCN] NIH Chemical Genomics Center [NCGC] MLPCN Grant: 1 R03 DA031086-01A1 PI Name: Dr. R. Eric Davis NCGC Assay Overview: Diffuse large B-cell lymphoma (DLBCL) is the most common category of non-Hodgkin lymphoma, with ~20,000 new cases per year in the United States. DLBCL should be regarded as a collection of different neoplasms. Microarray gene expression analysis has defined two principal types of DLBCL, named for their similarity to normal B cell stages or activation states: a germinal center B-cell (GCB) type, and an activated B-cell (ABC) type. In ABC-DLBCL, a constitutive high-level activity of the NF-kappaB family of transcription factors has been observed (1) and NF-kappaB target genes are more highly expressed in ABC primary tumors than in GCB tumors. Functional studies have shown a constitutive high-level activity of the IkappaB (inhibitor of kappa-B) kinase (IKK) complex. […] Further analysis of DLBCL primary tumors for NF-kappaB target gene expression imply that although CARD11 is required for constitutive IKK activity in all ABC-DLBCL lines, mutations in CARD11 may be the root cause of IKK activation only in lines or tumors with such mutations. In other words, CARD11 mutations may explain NF-kappaB activation in only 10% of ABC-DLBCL cases. […] This process has been termed 'chronic active BCR signaling' (CABS). The goal of this screen is to find small-molecule inhibitors of the CABS pathway found in ABC-DLBCL lines using a cell-based assay that measures IkappaBalpa stability, which has already been extensively validated in the OCI-Ly3 line (PubChem AID:445; REF: 4). […] The assay uses green (CBG68) and red (CBR) emitting beetle luciferases [Chroma-GloTM developed by Promega Corp.] where the green luciferase is fused to IkappaBalpha and the red luciferase is present in its native state. Both luciferase genes are stably present in the TMD8 human ABC DLBCL cell line, but their expression is under the control of tetracycline-inducible promoters. Following the addition of doxycycline to induce expression of the luciferases, the green luminescence in control cultures rises only slowly because the CBG fusion partner IkappaBalpha is targeted by IKK activity for rapid degradation. In contrast, green luminescence rises rapidly in the presence of proteasome inhibitors or IKK inhibitors. The rise in red luminescence of CBR is not affected by proteasome or IKK inhibitors, and serves as normalization for cell number and nonspecific effects. Compounds were screened as a concentration-titration series that ranged from 46 uM to 3 nM.
NCGC Assay Protocol Summary: Cells were seeded in 1536-well plates at 5000 cells/4uL in IMDM medium containing 0.5% FBS, w/o phenol red, 1% penicillin/streptomycin. Then, 23 nL of compounds or DMSO were delivered to each well using a pin tool. One uL 20ng/ml doxycycline was then dispensed into white solid 1536-well plates and the plates were incubated at 37C/5% C02 in a cell incubator for 4 hrs. Then 4 uL luminescent substrate mix (in-house prepared: 150 mM Tris-Cl, pH 7.6, 3 mM MgCl2, 1% Triton X-100, 5 mM DTT, 0.2 mM CoA, 0.15 mM ATP, 5 mM D-luciferin, final concentrations) was added to each well. The plate was incubated at r.t. for 10-15 min. The plates were measured on a ViewLux plate reader for green luminescence (540/20 nm filter) and red luminescence (618/8 nm filter). The green and red luminescent signals were corrected for red and green luminescence filter overlap using previously determined filter calibration constants (determined using the procedure outlined in the Promega Technical Manual; REF 4). The %Activity was determined from the ratio of corrected green/red luminescent values. MG132 were used as control. […] Red luminescent %Activity was normalized to the difference between red luminesence in basal cells (0%Activity) and zero luminescence (-100% Activity). […]

Where [1] appears, read: measured here: CBR red luminescence, cell number.
Where [2] appears, read: measured here: IkBa-CBG green luminescence.

Some of the results follow. These are further read-outs of the screen, such as a control signal, another cell line or another target. No call is given for them. Most of these compounds were active or inconclusive in the main read-out, so they are no random draw. Potencies come from curve fits of mixed quality, noted in brackets.

As a reminder, the AC50 is the midpoint of the concentration-response curve, whichever way the signal moves.

In the case of `Cc1cc(C)c(NS(=O)(=O)c2ccc3c(c2)n(C)c(=O)n3C)c(C)c1`, the AC50 under setting [1] is 7.08 µM [rising, full curve]. Consider `CCN(CC)CCOc1cccc(C(C)C)c1`, for which, under setting [1], the AC50 was 10.3 µM [rising, partial curve, poor fit]. On the same count and under the same terms, as for `CCC(Sc1nc(=O)cc(N)n1-c1cccc(C)c1)C(=O)Nc1cc(C)on1` (centres undefined), the figure is 0.651 µM [falling, full curve, poor fit]; as for `Cc1ccc(CNc2ccc([N+](=O)[O-])cc2C(N)=O)cc1`, 18.4 µM [rising, partial curve]; as for `O=C(COC(=O)CCCN1C(=O)c2cccc3cccc(c23)C1=O)Nc1ccc(Cl)cc1`, 32.6 µM [rising, partial curve, poor fit].

Consider `O=C(N/N=C/c1ccc[nH]1)c1ccccc1OCc1ccc(F)cc1`, for which, under setting [1], the AC50 was 17.8 µM [rising, partial curve, poor fit]. Still for that read-out and setting: as for `Cc1cc(C(=O)NN=C(CCC(=O)O)c2cccs2)c(C)o1`, the figure is 2.31 µM [falling, partial curve, poor fit]; as for `COc1cc(C(=O)OCCn2c(=O)c3c(ncn3CCN(C)C)n(C)c2=O)cc(OC)c1OC`, 5.62 µM [rising, full curve]; as for `CC1Sc2ccc(S(=O)(=O)N3CCC(C(=O)NCC(C)c4ccccc4)CC3)cc2NC1=O` (centres undefined), 35.5 µM [falling, single point].

Take `COC(=O)c1[nH]c2ccccc2c1NC(=O)CN1CCN(c2cccc(Cl)c2)CC1`: the AC50 under setting [1] was 35.5 µM [falling, single point]. Still for that read-out and setting: next, `O=C(CSc1nnnn1Cc1ccccc1)Nc1cccc(F)c1`: 6.31 µM [rising, full curve]; `O=C(C(=O)N1CCN(c2ccccc2)CC1)c1cn(CC(=O)N2CCCCCC2)c2ccccc12`: 14.1 µM [falling, single point]; `Clc1ccc(-c2cnn3c(-c4ccncc4)ccnc23)cc1`: 17.8 µM [rising, partial curve, poor fit]. Take `CC(=O)c1cc(C#N)c(SCCC(C)C)nc1C`: the AC50 by setting is: under setting [1], 9.2 µM [rising, partial curve, poor fit]; under setting [2], 29.1 µM [falling, partial curve, poor fit]. As to `COCCN(CC(=O)Nc1ccccc1C)S(=O)(=O)c1ccc(S(=O)(=O)N2CCCC2)cc1`, the AC50 under setting [1] is 32.6 µM [rising, single point]. Same read-out and setting: next, `Cc1nnc(NC(=O)Nc2ccc(Cl)c(Cl)c2)s1`: 25.9 µM [rising, single point]; `COc1ccccc1CN1CCc2c([nH]c3ccccc23)C1`: 28.2 µM [rising, partial curve, poor fit]; `O=c1[nH]c2cc3c(cc2cc1CN(Cc1ccccc1)Cc1nnnn1Cc1ccco1)OCCO3`: 35.5 µM [falling, single point].

In the case of `Cc1[nH]c2ccccc2c1C(=O)CSc1nc2ccccc2[nH]1`, the AC50 under setting [1] is 3.98 µM [rising, partial curve, poor fit]. Still for that read-out and setting: next, `CCC(C)(C)n1nnnc1C(c1ccncc1)N1CCC(Cc2ccccc2)CC1` (centres undefined): 0.206 µM [rising, full curve, poor fit]; `Cc1cccc(N=C2NC(=O)/C(=C/c3cccs3)S2)c1`: 16.4 µM [falling, partial curve]. `CNC[C@H]1Oc2ccc(NC(=O)Nc3ccccc3)cc2CC(=O)N([C@H](C)CO)C[C@H]1C`: the AC50 under setting [1] is 23.1 µM [rising, partial curve, poor fit]. Same read-out and setting: as for `COc1ccc(S(=O)(=O)N2CCN(C(=O)c3cc(-c4ccccc4OC)n[nH]3)CC2)cc1`, the figure is 7.94 µM [falling, partial curve]; as for `CN(C)c1ccc(NC(=O)Nc2cccc3ccccc23)cc1`, 11.2 µM [falling, partial curve]. On the same count and under the same terms, as for `CCCCCc1nnc(NC(=O)c2ccc3nc[nH]c3c2)s1`, the figure is 11.6 µM [rising, partial curve, poor fit]; as for `CCc1ccc(OCCNC(=O)c2ccccc2SCc2ccc(F)cc2)cc1`, 20 µM [falling, partial curve, poor fit]. `CN(C)c1nc(C=C(C#N)C#N)c(Cl)n1-c1ccc(F)cc1`: under setting [2], the AC50 is 25.1 µM [falling, single point]. On to `O=C1/C(=C/c2ccccc2)N=C(N2CCOCC2)N1c1cccc(Cl)c1`, for which, under setting [1], the half-maximal activity concentration (AC50) is 4.61 µM [rising, partial curve].

For `NC(=S)Nc1cnc2ccccc2c1`, the AC50 under setting [1] is 29.1 µM [rising, single point]. Still for that read-out and setting: next, `CCc1ccccc1NC(=S)NC1CC2CCC(C1)N2Cc1ccc(F)cc1` (centres undefined): 15.8 µM [falling, single point]. On the same count and under the same terms, next, `O=C(CCNS(=O)(=O)c1cccs1)N1CCN(c2cccc(C(F)(F)F)c2)CC1`: 6.51 µM [falling, partial curve, poor fit]. For `O=C(NC1CCCCCC1)C(Cc1ccccc1)n1cccc1` (centres undefined), the AC50 under setting [1] was 8.91 µM [rising, partial curve, poor fit]. As for `COC(=O)C1=C(C)N(c2ccc(F)c(Cl)c2)C(=O)C1`, under setting [1], the AC50 was 5.17 µM [falling, full curve, poor fit].
